# According to PMC7819943, “Rice protein-binding microarrays: a tool to detect cis-acting elements near promoter regions in rice”:
# Protein sequences, listed by entry. Tags and fused reporters are not part of them.
# UniProt Q0JBA9, entry or part of it: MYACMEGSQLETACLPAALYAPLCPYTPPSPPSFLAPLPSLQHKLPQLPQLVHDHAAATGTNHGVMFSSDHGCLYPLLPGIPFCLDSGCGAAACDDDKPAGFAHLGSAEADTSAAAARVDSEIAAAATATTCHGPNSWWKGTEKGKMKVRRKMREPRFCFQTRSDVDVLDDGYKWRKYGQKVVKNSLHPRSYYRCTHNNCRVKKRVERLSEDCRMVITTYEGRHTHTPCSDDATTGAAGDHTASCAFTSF
# The list shows a part of the results.
# Molecular target: OsWRKY34 (Oryza sativa, UniProt Q0JBA9 1-250)
# Experiment: protein-binding microarray (RPBM); PBS, 2% BSA, 51.3 ng/ul salmon testes DNA, 50 uM zinc acetate, 200 nM TF, 25 C, 1 h; high values mean tight binding
# Details: protein: recombinant; tags: N-terminal polyhistidine and DsRed monomer fusion (pET32a); label: CyDye5-dUTP incorporated in the synthesized complementary strand; 3' TTTTT single-stranded linker to array surface; dsDNA, one strand shown
# Outline: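 Binding signal is defined as the fluorescence intensity of each feature in arbitrary units, read on an Axon 4000B scanner. Transcription factors with N-terminal polyhistidine and DsRed fusions came from E. coli BL21-CodonPlus and were purified on Ni–NTA. They were incubated at 200 nM for 1 h at 25 °C on a custom Agilent array that had been made double-stranded with Cy5-dUTP, with 50 µM zinc acetate present, and the array was washed.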
row,Sequence,binding signal
1,ATTGAAATGGTTGACGTCGTTTTATTTTTTTTGTTACTTTCGGAGTCACCTAGTGCAG,8740 fluorescence intensity (a.u.)
2,CACGTTGCCGTCTCATCTCACCACCAGCATCAACACAAAACGGAGTCACCTAGTGCAG,9340 fluorescence intensity (a.u.)
3,GCCCCGCCCCGCCCATCTTGTCAGATCCTTCTTCATAGTTCGGAGTCACCTAGTGCAG,8890 fluorescence intensity (a.u.)
4,GCAACCTCAGGATGCTCCACGAGCTTTCTCTTAGCTACAACGGAGTCACCTAGTGCAG,17000 fluorescence intensity (a.u.)
5,ATATTATCTACGTGGACACTTTCATTGATTAATGTATTTCCGGAGTCACCTAGTGCAG,10300 fluorescence intensity (a.u.)
6,ACTAGTTGGGGTGTATAAGGTATGAGTATGATATATATGGCGGAGTCACCTAGTGCAG,9480 fluorescence intensity (a.u.)
7,TGGCGCTTTCTGTGATTCTTTCCAAATCGGCACATAAATTCGGAGTCACCTAGTGCAG,8810 fluorescence intensity (a.u.)
8,CTGTTCACTTAGCCGCATCCAGCGCCGGGCACCTTCTCCGCGGAGTCACCTAGTGCAG,9920 fluorescence intensity (a.u.)
9,TCTGTTCTGGTGGATGCTTTAAAGTCAACTGTCTATGATCCGGAGTCACCTAGTGCAG,10300 fluorescence intensity (a.u.)
10,CCGCCACGCCATCCCGTGCTCCTAACCATATTGTCTCTCTCGGAGTCACCTAGTGCAG,10200 fluorescence intensity (a.u.)
11,CAAACACGCATTAAAAAGTCAACGGTGTCAAATATTTTGACGGAGTCACCTAGTGCAG,10400 fluorescence intensity (a.u.)
12,TTTTCAGTAGATAACATCGTTGACTTTTCAACGAATATTTCGGAGTCACCTAGTGCAG,14400 fluorescence intensity (a.u.)
13,TGATTCGTGTCTTCGTGAGTCGTGACCACGGGAGGGGAGGCGGAGTCACCTAGTGCAG,9410 fluorescence intensity (a.u.)
14,AATTAGGTTTCCATTGGAATTTTTTTCATGCTGACAATTCCGGAGTCACCTAGTGCAG,8030 fluorescence intensity (a.u.)
15,ACCGTTTTTCTTGCAATGGTTGTTGTTGGGTTGATCTTGCCGGAGTCACCTAGTGCAG,8600 fluorescence intensity (a.u.)
16,ACCTTAATTTTCTCGGTTTTATTTTCTGCCTGAGCTTATTCGGAGTCACCTAGTGCAG,9360 fluorescence intensity (a.u.)
17,ATTCAGGTGCTTTACTCAAGTTTGTTAGGTTGTGTTCCTTCGGAGTCACCTAGTGCAG,12300 fluorescence intensity (a.u.)
18,TAGGGGTCTTTTCCATGTTTCCTCGGGATCAATTTCGGTTCGGAGTCACCTAGTGCAG,9390 fluorescence intensity (a.u.)
19,ATTTTGTTCTTTTTTTTTTCCTTTTCTATTTCTGGACTTTCGGAGTCACCTAGTGCAG,10500 fluorescence intensity (a.u.)
20,ATCTATCACTACCGAAAGCCGGGCGGGGCGAAACTGCAAACGGAGTCACCTAGTGCAG,8460 fluorescence intensity (a.u.)
21,ATCGATTTTTCTATACGGTCATCTTAAGTCGACCACACGGCGGAGTCACCTAGTGCAG,8450 fluorescence intensity (a.u.)

# A second format for some results above.
row | Sequence | binding signal
14 | AATTAGGTTTCCATTGGAATTTTTTTCATGCTGACAATTCCGGAGTCACCTAGTGCAG | 8030 fluorescence intensity (a.u.)
15 | ACCGTTTTTCTTGCAATGGTTGTTGTTGGGTTGATCTTGCCGGAGTCACCTAGTGCAG | 8600 fluorescence intensity (a.u.)
16 | ACCTTAATTTTCTCGGTTTTATTTTCTGCCTGAGCTTATTCGGAGTCACCTAGTGCAG | 9360 fluorescence intensity (a.u.)

# (cont.)

row,Sequence,binding signal
1,TTCATGCTTCATTCTGTATTGTTTTTTTTTTTTTGAAAAACGGAGTCACCTAGTGCAG,8420 fluorescence intensity (a.u.)
2,AGTTGTGTACTTGTGTTGCCGCAACTTTTAGTTCTTTGCTCGGAGTCACCTAGTGCAG,8790 fluorescence intensity (a.u.)
3,ATCCGATGTTTGTTAATTTGATGCGGTTTAGCTGGCAGCTCGGAGTCACCTAGTGCAG,9040 fluorescence intensity (a.u.)
4,CATCAGATCACTCGCTCTCCTCTTATTCCTTGTCCCAACTCGGAGTCACCTAGTGCAG,9440 fluorescence intensity (a.u.)
5,CTTTTGTGCTCATCTGAACTTCTGAAGTATCATAAAGAAGCGGAGTCACCTAGTGCAG,31400 fluorescence intensity (a.u.)
6,GAAACTTTCCTACGCACAAACTTTCAACTTTTACGTCACACGGAGTCACCTAGTGCAG,8680 fluorescence intensity (a.u.)
7,AGGTTTCTTTCTTGTGTTCATTGCTTTTTTATGCTCAATGCGGAGTCACCTAGTGCAG,8750 fluorescence intensity (a.u.)
8,ACACATTGACCGGCCCAATTATTCTCTGCTTGTTTGGCCCCGGAGTCACCTAGTGCAG,13700 fluorescence intensity (a.u.)
9,ATATGGAAGATTCTGTACTCATGGTGGTTTTTCTTTTTTTCGGAGTCACCTAGTGCAG,8510 fluorescence intensity (a.u.)
10,GCCTTCCGTTCCGCTCCTCTACCGCCGCGTCAAGATTCCCCGGAGTCACCTAGTGCAG,8440 fluorescence intensity (a.u.)
11,TTCTCTCTCAATTTTACATTGCATTTTCTTGTAAGTTACACGGAGTCACCTAGTGCAG,9000 fluorescence intensity (a.u.)
12,AGCACTCCGCCCATCCCCGCGGCTGGCCTCGTCCGTCGCCCGGAGTCACCTAGTGCAG,9210 fluorescence intensity (a.u.)
13,GGGACATGAGAATTTTGGTGGAATGGGGATGGGGAATTGACGGAGTCACCTAGTGCAG,12400 fluorescence intensity (a.u.)
14,CATTTTCTTATAATTAATTAAGTATTTGCTATTTTTTTTACGGAGTCACCTAGTGCAG,9060 fluorescence intensity (a.u.)
15,CATTTTACCATGTGTTCATTTGTTCAACCAGGACCATGTACGGAGTCACCTAGTGCAG,8380 fluorescence intensity (a.u.)
16,TGAAGCATGAACGTTTTGCATTGCTTGTCACCTGCCTATACGGAGTCACCTAGTGCAG,8160 fluorescence intensity (a.u.)
17,CTCCCTACTACTCGGTTTCTGTCAGATCTCCGGCGAGCATCGGAGTCACCTAGTGCAG,10000 fluorescence intensity (a.u.)
18,ACGACCTGTTCTAATGACCCTGCATCTTGACTGAAGCCACCGGAGTCACCTAGTGCAG,8080 fluorescence intensity (a.u.)
19,TAGTGTTGGTTTGATTTTTATATCACTAGAGATGAACTAACGGAGTCACCTAGTGCAG,8560 fluorescence intensity (a.u.)
20,ACGCTAGCATCACTGCATCTGCACACACTGCACTTGCCTTCGGAGTCACCTAGTGCAG,9970 fluorescence intensity (a.u.)
21,TGGGTGGGAGGGTAGTTATGTACTTTCGCGTCTATTCCGCCGGAGTCACCTAGTGCAG,14100 fluorescence intensity (a.u.)

row,Sequence,binding signal
1,TCTGGAAACCTTTTTCTCTTTGCTGACACCATTCTTGTTCCGGAGTCACCTAGTGCAG,8420 fluorescence intensity (a.u.)
2,ACCGCCACTGACAACCGGGCCCCACCACACACCCGGCCCCCGGAGTCACCTAGTGCAG,8840 fluorescence intensity (a.u.)
3,CGACAACGCACTCCGTCACTCCTACGATGAATATACCGCCCGGAGTCACCTAGTGCAG,8750 fluorescence intensity (a.u.)
4,CTTATCGCTCTTTGCTAGTTAGCGCTAATTCTCTTTAGCTCGGAGTCACCTAGTGCAG,10900 fluorescence intensity (a.u.)
5,GGGTCCCACGTACTTTTTTGCCTTTTGTTTTATTATAATGCGGAGTCACCTAGTGCAG,8120 fluorescence intensity (a.u.)
6,TCTGTTACTCGATGCTATAATTGCCGCTATGGTCTTTGAACGGAGTCACCTAGTGCAG,10200 fluorescence intensity (a.u.)
7,ACGGCCTCTCACCTCGTCTCGACCCATCGGAGCCACCACTCGGAGTCACCTAGTGCAG,10300 fluorescence intensity (a.u.)
8,GATTTGCACTACTCTACACACTGCAGAGTCACAAGATCACCGGAGTCACCTAGTGCAG,8090 fluorescence intensity (a.u.)
9,GTTTCATCCATATCCTAATCTGGTAGTTTGAGCCTTTTGACGGAGTCACCTAGTGCAG,8140 fluorescence intensity (a.u.)
10,TAATAAATCACTTGTGGCTATTGTGTTTGTTACTTTACTTCGGAGTCACCTAGTGCAG,8230 fluorescence intensity (a.u.)
11,TTGGTTAGGTACAGTGTTTGGTGTGGATGTGTATAGATTTCGGAGTCACCTAGTGCAG,8500 fluorescence intensity (a.u.)
12,TATGGCTTCTCACCTCGGTTGATTGATTTTTGATCGATCCCGGAGTCACCTAGTGCAG,8170 fluorescence intensity (a.u.)
13,CTCACAGACCAACACATGTCTTTTCTGCACACTTTGTCCTCGGAGTCACCTAGTGCAG,9260 fluorescence intensity (a.u.)
14,CCCTAGCCGCGACCATTCCTCTGCCTGCTCTCCTCCTCTCCGGAGTCACCTAGTGCAG,9330 fluorescence intensity (a.u.)
15,GGAAAGCCTATGGTGCGCCAGATGGTGTACACGCCCGTGTCGGAGTCACCTAGTGCAG,8140 fluorescence intensity (a.u.)
16,CTCCATTCCTCAATGTTATGTGGACCTGAACTCACATGTCCGGAGTCACCTAGTGCAG,8360 fluorescence intensity (a.u.)
17,AATTATGGCCGCATTTATGTTGTCGGTATCACCCGTATCACGGAGTCACCTAGTGCAG,8640 fluorescence intensity (a.u.)
18,TATTTGCTACCAATCCACTTCTCTCTTTCTCTTCCATTTCCGGAGTCACCTAGTGCAG,9120 fluorescence intensity (a.u.)
19,TTCCTCACCTTGCCACTGTCGGTTCTTGCCTCTTTCTTTGCGGAGTCACCTAGTGCAG,13900 fluorescence intensity (a.u.)
20,AACATTTCCTCTGAGTCTATCTCTCTCATCTGATTCTTGCCGGAGTCACCTAGTGCAG,8800 fluorescence intensity (a.u.)
21,CAATTCTAGGTTTTTAACACTATTATCCGATATCCCTACTCGGAGTCACCTAGTGCAG,8880 fluorescence intensity (a.u.)

# Some of the entries above in a different format.
row	Sequence	binding signal
16	CTCCATTCCTCAATGTTATGTGGACCTGAACTCACATGTCCGGAGTCACCTAGTGCAG	8360 fluorescence intensity (a.u.)
17	AATTATGGCCGCATTTATGTTGTCGGTATCACCCGTATCACGGAGTCACCTAGTGCAG	8640 fluorescence intensity (a.u.)

# (list continues)

row,Sequence,binding signal
1,GTGGCTTGATCTCTAGTTAATTACCTCCTCCCATATATGACGGAGTCACCTAGTGCAG,8400 fluorescence intensity (a.u.)
2,TTCTTCTTGGCTGCTGTGCTGGTGGTCGTCGCCATGGCGTCGGAGTCACCTAGTGCAG,10200 fluorescence intensity (a.u.)
3,CTCTTGTTGTTGTGTTCCTTACTGATACTTTGCTAAGTATCGGAGTCACCTAGTGCAG,9080 fluorescence intensity (a.u.)
4,GAGTTATCCTCACCACCCACCGCTCGTCGCCTCCACTCCGCGGAGTCACCTAGTGCAG,8120 fluorescence intensity (a.u.)
5,CTAAACAAAACACATCACACGTCACGTTCAATCAAACTCACGGAGTCACCTAGTGCAG,9150 fluorescence intensity (a.u.)
6,CACGATGTACGTTCTTGTTCCTTCCACCTGTCTGCTATTTCGGAGTCACCTAGTGCAG,11100 fluorescence intensity (a.u.)
7,GAACCACATGCGGGCCATTTCTTTGATCGTCACCAAAAGCCGGAGTCACCTAGTGCAG,8320 fluorescence intensity (a.u.)
8,CCCTCTTCCTCGTTTTCTGCGCGCACGTTTTTCGAACTGCCGGAGTCACCTAGTGCAG,8610 fluorescence intensity (a.u.)
9,CTACACCCGTCTCGATCTTTCGCTCAATTCCGCTTTAATTCGGAGTCACCTAGTGCAG,14700 fluorescence intensity (a.u.)
10,CTACTGTTTGCAGCTGGGTTTTGGTTTGATCCATGGTTTTCGGAGTCACCTAGTGCAG,8310 fluorescence intensity (a.u.)
11,TGGGTTAATTGGGTTGGGTGGGCCGCTGCCTATGTGGCGGCGGAGTCACCTAGTGCAG,14800 fluorescence intensity (a.u.)
12,GGTTGCTTTATTTACACTATTAGTTAGCCCTAATATTATTCGGAGTCACCTAGTGCAG,10700 fluorescence intensity (a.u.)
13,CTTTTCTTTTGTTAGTTTTTTGTTTTTCTATCAAACTAATCGGAGTCACCTAGTGCAG,8370 fluorescence intensity (a.u.)
14,GTTAGTCCACTCAATACACTCATTGCCTCATCATCGTGTCCGGAGTCACCTAGTGCAG,9450 fluorescence intensity (a.u.)
15,TCGCTTTCAGAATTAGTTTGGTTGGGGTGAAATTTCTTGGCGGAGTCACCTAGTGCAG,9020 fluorescence intensity (a.u.)
16,TCCACGAGTACTTGTACTCCTATACTACTCCATTTGTTTTCGGAGTCACCTAGTGCAG,9560 fluorescence intensity (a.u.)
17,CAGACAAAGGGTGTGTTTAGTTGACGTCAAAATTGTAAGTCGGAGTCACCTAGTGCAG,8760 fluorescence intensity (a.u.)
18,TACTGAATCACACCTTTTGTTTCTTCCAGCACTGTACTCTCGGAGTCACCTAGTGCAG,9870 fluorescence intensity (a.u.)
19,TAAACCTAACTTAACCACCTACTACTTCAGCTAAAGCTTACGGAGTCACCTAGTGCAG,8360 fluorescence intensity (a.u.)
20,CATAACCATTAGCATCGCACTCAGGGGCGGGCCCACTATTCGGAGTCACCTAGTGCAG,10400 fluorescence intensity (a.u.)
21,GTATTAAACTCGCTCAAGTAACTCCTGCACACCGCAGTCACGGAGTCACCTAGTGCAG,8630 fluorescence intensity (a.u.)
